Laboratory results as given in US5229363 (dated 1993).

Experiments:
[1] = general procedure: Boc solid-phase peptide synthesis; N-BOC-L-Pro-PAM resin; diisopropylcarbodiimide / HOBt in NMP; settings: whole synthesis
[2] = general procedure: Boc solid-phase peptide synthesis; N-BOC-L-Pro-PAM resin (0.72 meq/gm); N-BOC-4-benzyloxy-L-Pro-Merrifield resin; PAM-Thr resin; diisopropylcarbodiimide / HOBt in NMP; settings: cyclisation step, on linear precursor
[3] = general procedure: Boc solid-phase peptide synthesis; PAM-Thr resin; diisopropylcarbodiimide / HOBt in NMP; settings: whole synthesis
[4] = scale of the general procedure 0.45 meq proline

Substance Linear Hexapeptide has a crude mass [1] of 290 milligrams, an isolated mass [1] of 160 milligrams and an isolated yield [1, 4] of 36% yield.

Work on “PEPTIDE1{[OctOBz].[Orn].T.P.[hTyr].T.P}$PEPTIDE1,PEPTIDE1,2:R3-7:R2$$$V2.0” yielded a cyclisation yield [2] of 54% yield.

Work on crude linear peptide yielded a crude mass [3] of 327 milligrams and a crude yield [3, 4] of 76% yield.

For part of these data: Some peptides are written in HELM: one residue between dots, names in brackets for other building blocks, links after the first $.
